Tested on: L1210 leukemia cells (L1210/PDD)
Test: In vitro cytotoxicity / cross-resistance, L1210/PDD (L1210/DDP) cells resistant to cisdiamminedichloroplatinum(II)
Type: cell-based
Conditions: L1210/DDP vs L1210/0
Method: Four ml of cell suspension were added to culture tubes and the appropriate concentration (0.01, 0.1, 1 or 10 μg/ml final drug concentration) was added. After 96 hours the cell concentration of control and experimental cultures were calculated with the aid of a Coulter Counter® Model ZBf and the percent inhibition calculated.

| Molecule | Resistance Factor |
| --- | --- |
| NC1CCCCC1N.O=C1OC(C(O)CO)C([O-])=C1O.O=C1OC(C(O)CO)C([O-])=C1O.[Pt+2] (mixture of isomers) [Compound 7, cis-bis-isoascorbato(DACH)Pt(II).3H2 O] | 0.9 |
| NC1CCCCC1N.O.O=C1OC(C(O)CO)C([O-])=C1O.O=C1OC(C(O)CO)C([O-])=C1O.[Pt+2] (stereo not drawn) [Compound 3, cis-bis-ascorbato(DACH)Pt(II).1H2 O] | 1.0 |
| NC1CCCCC1N.O=C1O[C@H]([C@@H](O)C(=O)[O-])[C@H](O)[C@H]1O.O=C1O[C@H]([C@@H](O)C(=O)[O-])[C@H](O)[C@H]1O.[Pt+2] [Compound 9, cis-bis-D-saccharato-1,4-lactone(DACH)Pt(II)] | 0.2 |
| O.O.O=C([O-])C[N-]CC(=O)O.[NH-]C1CCCCC1[NH-].[Pt] [Compound 11, iminodiacetato(DACH)Pt(II).2H2 O] | 0.4 |
| NC1CCCCC1N.NCCOS(=O)(=O)[O-].NCCOS(=O)(=O)[O-].[Pt+2] (stereo not drawn) [Compound 14, cis-bis-2-aminoethylsulfato(DACH)Pt(II)] | 0.9 |
| NC1CCCCC1N.O=C([O-])C1CCCN1.O=C([O-])C1CCCN1.[Pt+2] [Compound 16, cis-bis-L-prolinato(DACH)Pt(II)] | 0.6 |
| CN(CC(=O)[O-])CC(=O)[O-].NC1CCCCC1N.O.[Pt+2] [Compound 28, N--Methyliminodiacetato(DACH)Pt(II).1H2 O] | 0.8 |
| NC1CCCCC1N.O.O.O=C([O-])CN(CC(=O)[O-])c1ccccc1.[Pt+2] [Compound 37, N--Phenyliminodiacetato(DACH)Pt(II).2H2 O] | 1.1 |
| NC1CCCCC1N.O=C([O-])CN(CC(=O)[O-])Cc1ccccc1.[Pt+2] [Compound 38, N--Benzyliminodiacetato(DACH)Pt(II)] | 0.8 |
| NC1CCCCC1N.O.O.O=C([O-])CN(CCO)CC(=O)[O-].[Pt+2] [Compound 39, N--(2-Hydroxyethyl)-iminodiacetato(DACH)Pt(II).2H2 O] | 1.3 |
| NC(=O)CN(CC(=O)[O-])CC(=O)[O-].NC1CCCCC1N.[Pt+2] [Compound 42, N--(2-Acetamido)-iminodiacetato(DACH)Pt(II).1/2H2 O] | 0.6 |
| N.N.[Cl][Pt][Cl] [DDP, diamminedichloroplatinum II, reference compound] | 55 |
| CN(CC(=O)[O-])CC(=O)[O-].N[C@@H]1CCCC[C@H]1N.[Pt+2] [Identifier No. 11a, mono-N--methyliminodiacetato] | 2.4 |
| N[C@@H]1CCCC[C@H]1N.O=C([O-])CN(CCO)CC(=O)[O-].[Pt+2] [Identifier No. 12a, mono-N--hydroxyethyliminodiacetato] | 1.3 |
| cis-bis-D-monosaccharato(DACH)Pt(II).3H2 O [Compound 8] | 0.3 |
| furanedicarboxylato(DACH)Pt(II) [Compound 19] | 0.9 |
| isocitratomonoethylester(DACH)Pt(II).1.5H2 O [Compound 21] | 0.9 |
| mono-N--benzyliminodiacetato [Identifier No. 15a] | 2.4 |
| mono-N--phenyliminodiacetato [Identifier No. 14a] | 0.8 |

From patent US4661516A, “Diaminocyclohexane platinum complexes” (Research Corporation, priority 1984, dated 1987)
